Laboratory results published in US20240409935A1, “Atg8ylation coordinates stress granule formation and mTOR inactivation in response to lysosomal damage” (priority 2023, published 2024).
These are yes or no findings as the source states them, for the method shown. Binding seen in cells or lysates may run through a third protein. Some results given as binding are weak or reduced against the parent protein; the word gives no strength.

Amino acid sequences for entries named in this document (tags omitted). Residues count along the entry.
UniProt Q8WUM4, residues 362-702: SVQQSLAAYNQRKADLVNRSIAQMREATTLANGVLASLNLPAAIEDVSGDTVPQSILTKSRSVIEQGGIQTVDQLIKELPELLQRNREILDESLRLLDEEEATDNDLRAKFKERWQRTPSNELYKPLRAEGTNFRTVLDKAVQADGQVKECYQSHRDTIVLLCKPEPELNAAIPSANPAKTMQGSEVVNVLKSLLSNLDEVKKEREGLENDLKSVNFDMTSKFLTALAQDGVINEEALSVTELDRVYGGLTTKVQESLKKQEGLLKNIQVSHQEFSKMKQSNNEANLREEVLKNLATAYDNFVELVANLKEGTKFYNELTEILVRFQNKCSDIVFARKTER

Target: FLAG-tagged V domain of ALIX (UniProt Q8WUM4)
Assay: co-IP with anti-FLAG from HEK293T cells expressing FLAG tagged ALIX constructs and Myc-PKR

binding: binds
B1: endogenous PACT (protein, UniProt O75569 1-313, looked up)
chain: MSQSRHRAEAPPLEREDSGTFSLGKMITAKPGKTPIQVLHEYGMKTKNIPVYECERSDVQIHVPTFTFRVTVGDITCTGEGTSKKLAKHRAAEAAINILKANASICFAVPDPLMPDPSKQPKNQLNPIGSLQELAIHHGWRLPEYTLSQEGGPAHKREYTTICRLESFMETGKGASKKQAKRNAAEKFLAKFSNISPENHISLTNVVGHSLGCTWHSLRNSPGEKINLLKRSLLSIPNTDYIQLLSEIAKEQGFNITYLDIDELSANGQYQCLAELSTSPITVCHGSGISCGNAQSDAAHNALQYLKIIAERK
